{"sequences": {"note": "Protein sequences, listed by entry. Tags and fused reporters are not part of them.", "UniProt P69596": "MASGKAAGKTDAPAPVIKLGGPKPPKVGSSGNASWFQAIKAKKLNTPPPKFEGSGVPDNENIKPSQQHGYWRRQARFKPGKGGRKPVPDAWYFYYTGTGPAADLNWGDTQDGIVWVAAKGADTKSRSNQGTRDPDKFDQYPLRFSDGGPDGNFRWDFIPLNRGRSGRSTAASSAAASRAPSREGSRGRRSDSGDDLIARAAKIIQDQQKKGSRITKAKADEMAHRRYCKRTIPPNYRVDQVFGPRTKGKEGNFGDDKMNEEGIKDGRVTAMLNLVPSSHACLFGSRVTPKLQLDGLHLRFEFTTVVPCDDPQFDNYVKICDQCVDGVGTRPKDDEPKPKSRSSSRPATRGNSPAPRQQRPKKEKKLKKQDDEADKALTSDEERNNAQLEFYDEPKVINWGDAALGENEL", "UniProt Q14739": "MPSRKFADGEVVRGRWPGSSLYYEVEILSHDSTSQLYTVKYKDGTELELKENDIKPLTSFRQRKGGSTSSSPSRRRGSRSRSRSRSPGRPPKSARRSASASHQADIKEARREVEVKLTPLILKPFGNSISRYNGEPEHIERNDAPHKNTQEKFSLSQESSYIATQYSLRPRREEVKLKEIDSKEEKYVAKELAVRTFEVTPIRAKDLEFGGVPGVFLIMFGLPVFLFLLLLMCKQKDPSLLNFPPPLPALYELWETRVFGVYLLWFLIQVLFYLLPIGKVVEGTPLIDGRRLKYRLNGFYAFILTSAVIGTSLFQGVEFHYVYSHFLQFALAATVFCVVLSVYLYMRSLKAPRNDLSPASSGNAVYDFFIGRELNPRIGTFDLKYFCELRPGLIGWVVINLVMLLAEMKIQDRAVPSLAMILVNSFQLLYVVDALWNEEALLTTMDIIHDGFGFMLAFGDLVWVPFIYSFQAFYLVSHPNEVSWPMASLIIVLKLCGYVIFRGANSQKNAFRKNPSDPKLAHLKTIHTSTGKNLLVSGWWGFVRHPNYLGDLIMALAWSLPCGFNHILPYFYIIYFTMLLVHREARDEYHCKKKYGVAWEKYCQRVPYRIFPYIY", "UniProt P20700": "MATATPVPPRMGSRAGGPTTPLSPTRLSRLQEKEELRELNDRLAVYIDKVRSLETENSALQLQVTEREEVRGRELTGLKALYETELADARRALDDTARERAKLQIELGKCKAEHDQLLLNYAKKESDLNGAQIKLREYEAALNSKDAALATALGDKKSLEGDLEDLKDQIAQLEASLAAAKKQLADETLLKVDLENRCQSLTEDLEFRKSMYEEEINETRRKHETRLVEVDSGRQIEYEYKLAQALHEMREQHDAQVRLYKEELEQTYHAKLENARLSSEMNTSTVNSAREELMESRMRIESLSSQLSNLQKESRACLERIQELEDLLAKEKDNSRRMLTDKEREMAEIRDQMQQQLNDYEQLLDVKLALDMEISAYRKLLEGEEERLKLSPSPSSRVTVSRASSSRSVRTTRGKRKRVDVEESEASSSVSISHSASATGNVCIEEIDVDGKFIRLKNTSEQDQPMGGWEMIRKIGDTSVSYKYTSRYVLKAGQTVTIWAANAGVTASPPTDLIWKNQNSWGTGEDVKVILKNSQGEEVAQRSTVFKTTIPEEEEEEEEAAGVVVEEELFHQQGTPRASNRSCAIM", "UniProt Q96SB4": "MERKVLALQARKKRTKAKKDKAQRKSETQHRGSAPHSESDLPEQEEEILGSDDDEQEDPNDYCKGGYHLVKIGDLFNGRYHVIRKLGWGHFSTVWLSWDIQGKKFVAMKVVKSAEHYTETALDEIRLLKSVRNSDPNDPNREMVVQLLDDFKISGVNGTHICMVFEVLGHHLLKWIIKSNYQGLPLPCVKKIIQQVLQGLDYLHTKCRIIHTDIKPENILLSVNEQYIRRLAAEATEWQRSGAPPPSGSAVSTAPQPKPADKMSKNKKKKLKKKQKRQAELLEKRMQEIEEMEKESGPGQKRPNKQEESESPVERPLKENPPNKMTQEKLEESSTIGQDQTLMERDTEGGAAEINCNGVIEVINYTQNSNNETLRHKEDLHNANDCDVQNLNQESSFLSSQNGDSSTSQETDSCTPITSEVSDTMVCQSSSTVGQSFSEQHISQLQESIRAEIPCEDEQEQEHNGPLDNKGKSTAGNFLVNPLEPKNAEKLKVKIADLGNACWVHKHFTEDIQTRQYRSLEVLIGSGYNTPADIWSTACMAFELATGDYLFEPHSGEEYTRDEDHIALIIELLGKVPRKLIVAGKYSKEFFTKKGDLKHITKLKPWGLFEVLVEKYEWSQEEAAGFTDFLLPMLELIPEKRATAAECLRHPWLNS"}, "source": "paper PMC11633972", "note": "Results are given in words; binding and its absence hold for the method and conditions named. In cells and extracts the contact can be indirect. Here binding means that the protein was enriched with, or labelled near, the bait; the list need not be complete.", "data": [{"target": "Flag-tagged IBV N protein (expressed in HEK-293T cells) (infectious bronchitis virus (IBV), Beaudette strain) (UniProt P69596)", "test": "affinity purification with mass spectrometry", "values": [{"substance": "LBR (Lamin B receptor) (from UniProt Q14739 1-615)", "binding": "binds"}, {"substance": "LMNB1 (Lamin B1) (from UniProt P20700 1-586)", "binding": "binds"}, {"substance": "SRPK1 (SRSF protein kinase 1) (from UniProt Q96SB4 1-655) (enzyme)", "binding": "binds"}]}]}
